Measured values reported in patent publication US20080311599A1.
These are yes or no findings as the source states them, for the method shown. Binding seen in cells or lysates may run through a third protein. Some entries that bind do so weakly or less than the wild type.

Amino acid sequences for entries named in this document (tags omitted). A change or cut given only in a name is not applied to a line headed by its entry.
UniProt Q14790: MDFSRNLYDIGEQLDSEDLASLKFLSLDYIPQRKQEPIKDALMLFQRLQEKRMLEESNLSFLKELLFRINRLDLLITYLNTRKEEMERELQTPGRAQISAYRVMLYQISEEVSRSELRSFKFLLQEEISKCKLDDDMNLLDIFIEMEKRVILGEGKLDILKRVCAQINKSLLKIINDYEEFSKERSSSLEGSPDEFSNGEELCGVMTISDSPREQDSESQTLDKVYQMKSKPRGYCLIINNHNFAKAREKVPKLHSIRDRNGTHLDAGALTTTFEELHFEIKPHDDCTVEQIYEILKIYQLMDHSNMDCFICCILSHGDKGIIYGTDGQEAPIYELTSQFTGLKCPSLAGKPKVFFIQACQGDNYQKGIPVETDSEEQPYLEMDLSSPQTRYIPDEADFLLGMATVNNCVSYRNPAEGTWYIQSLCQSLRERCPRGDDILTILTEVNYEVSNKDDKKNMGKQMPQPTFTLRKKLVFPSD

Legend:
pro-caspase-8 (human) [1] = molecular target: pro-caspase-8 (human) (UniProt Q14790); assay: co-immunoprecipitation from lysates of non-stimulated cell lines
pro-caspase-8 (human) [2] = molecular target: pro-caspase-8 (human) (UniProt Q14790); assay: co-immunoprecipitation with mAb 179 from BJAB lysates, SDS-PAGE and Silver staining
pro-caspase-8 (human) [3] = molecular target: pro-caspase-8 (human) (UniProt Q14790); assay: co-immunoprecipitation with mAb 179
pro-caspase-8 (human) [4] = molecular target: pro-caspase-8 (human) (UniProt Q14790); assay: co-immunoprecipitation with mAb 179 from BJAB lysates, time course, Silver staining
pro-caspase-8 (human) [5] = molecular target: pro-caspase-8 (human) (UniProt Q14790); assay: co-immunoprecipitation with mAb 179 from BJAB lysates, Silver staining
pro-caspase-8 (human) [6] = molecular target: pro-caspase-8 (human) (UniProt Q14790); assay: co-immunoprecipitation with mAb 179 from BJAB lysates after 20 minutes of Fas-ligand, Silver staining
pro-caspase-8 (human) [7] = molecular target: pro-caspase-8 (human) (UniProt Q14790); assay: co-immunoprecipitation with mAb 179 from BJAB lysates after 20 minutes of Fas-ligand
pro-caspase-8 (human) [8] = molecular target: pro-caspase-8 (human) (UniProt Q14790); assay: co-immunoprecipitation with mAb 179 from BJAB lysates, time course of Fas-ligand treatment

Measured: binding

B1: p72 (protein)
chain: MSLKMDNRDVAGKANRWFGVAPPKSGKMNMNILHQEELIAQKKREIEAKMEQKAKQNQVASPQPPHPGEITNAHNSSCISNKFANDGSFLQQFLKLQKAQTSTDAPTSAPSAPPSTPTPSAGKRSLLISRRTGLGLASLPGPVKSYSHAKQLPVAHRPSVFQSPDEDEEEDYEQWLEIKVSPPEGAETRKVIEKLARFVAEGGPELEKVAMEDYKDNPAFAFLHDKNSREFLYYRKKVAEIRKEAQKSQAASQKVSPPEDEEVKNLAEKLARFIADGGPEVETIALQNNRENQAFSFLYEPNSQGYKYYRQKLEEFRKAKASSTGSFTAPDPGLKRKSPPEALSGSLPPATTCPASSTPAPTIIPAPAAPGKPASAATVKRKRKSRWGPEEDKVELLPAELVQRDVDASPSPLSVQDLKGLGYEKGKPVGLVGVTELSDAQKKQLKEQQEMQQMYDMIMQHKRAMQDMQLLWEKAVQQHQHGYDSDEEVDSELGTWEHQLRRMEMDKTREWAEQLTKMGRGKHFIGDFLPPDELEKFMETFKALKEGREPDYSEYKEFKLTVENIGYQMLMKMGWKEGEGLGSEGQGIKNPVNKGTTTVDGAGFGIDRPAELSKEDDEYEAFRKRMMLAYRFRPNPLNNPRRPYY
binds: pro-caspase-8 (human) [1] | pro-caspase-8 (human) [2] | pro-caspase-8 (human) [3] | pro-caspase-8 (human) [4] | pro-caspase-8 (human) [5]

B2: 68 kDa fragment of p72 (protein)
chain: MSLKMDNRDVAGKANRWFGVAPPKSGKMNMNILHQEELIAQKKREIEAKMEQKAKQNQVASPQPPHPGEITNAHNSSCISNKFANDGSFLQQFLKLQKAQTSTDAPTSAPSAPPSTPTPSAGKRSLLISRRTGLGLASLPGPVKSYSHAKQLPVAHRPSVFQSPDEDEEEDYEQWLEIKVSPPEGAETRKVIEKLARFVAEGGPELEKVAMEDYKDNPAFAFLHDKNSREFLYYRKKVAEIRKEAQKSQAASQKVSPPEDEEVKNLAEKLARFIADGGPEVETIALQNNRENQAFSFLYEPNSQGYKYYRQKLEEFRKAKASSTGSFTAPDPGLKRKSPPEALSGSLPPATTCPASSTPAPTIIPAPAAPGKPASAATVKRKRKSRWGPEEDKVELLPAELVQRDVDASPSPLSVQDLKGLGYEKGKPVGLVGVTELSDAQKKQLKEQQEMQQMYDMIMQHKRAMQDMQLLWEKAVQQHQHGYDSDEEVDSELGTWEHQLRRMEMDKTREWAEQLTKMGRGKHFIGDFLPPDELEKFMETFKALKEGREPDYSEYKEFKLTVENIGYQMLMKMGWKEGEGLGSEGQGIKNPVNKGTTTVD
binds: pro-caspase-8 (human) [6] | pro-caspase-8 (human) [7] | pro-caspase-8 (human) [4] | pro-caspase-8 (human) [8]
